Measurements: publication doi:10.64898/2025.12.17.694855
These are yes or no findings as the source states them, for the method shown. Binding seen in cells or lysates may run through a third protein. These calls come from enrichment with a bait or labelling near it, and not all partners need be listed.

T1: Dcp1-TAP (S. cerevisiae), Q12517
T1 chain: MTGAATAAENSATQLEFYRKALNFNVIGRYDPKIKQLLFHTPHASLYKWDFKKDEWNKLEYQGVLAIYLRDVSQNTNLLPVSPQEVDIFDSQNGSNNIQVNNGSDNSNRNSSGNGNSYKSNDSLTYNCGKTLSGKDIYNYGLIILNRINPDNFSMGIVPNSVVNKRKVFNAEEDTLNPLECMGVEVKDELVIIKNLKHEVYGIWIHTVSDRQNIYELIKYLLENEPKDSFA

T2: Lsm1-TAP (S. cerevisiae), P47017
T2 chain: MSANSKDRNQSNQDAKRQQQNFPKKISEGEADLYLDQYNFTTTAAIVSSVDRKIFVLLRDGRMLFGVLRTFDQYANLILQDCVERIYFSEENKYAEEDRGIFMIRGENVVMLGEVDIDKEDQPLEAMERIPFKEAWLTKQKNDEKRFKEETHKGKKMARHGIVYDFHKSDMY


What was measured:
[1] = biological target: T1, Dcp1-TAP (S. cerevisiae), Q12517; test: affinity purification with mass spectrometry; settings: remark: other sources report otherwise
[2] = biological target: T2, Lsm1-TAP (S. cerevisiae), P47017; test: affinity purification with mass spectrometry; settings: remark: other sources report otherwise

binding [1]	binding [2]	Binder
binds	–	Pat1, P25644 1-796 (protein) MSFFGLENSGNARDGPLDFEESYKGYGEHELEENDYLNDETFGDNVQVGTDFDFGNPHSSGSSGNAIGGNGVGATARSYVAATAEGISGPRTDGTAAAGPLDLKPMESLWSTAPPPAMAPSPQSTMAPAPAPQQMAPLQPILSMQDLERQQRQMQQQFMNFHAMGHPQGLPQGPPQQQFPMQPASGQPGPSQFAPPPPPPGVNVNMNQMPMGPVQVPVQASPSPIGMSNTPSPGPVVGATKMPLQSGRRSKRDLSPEEQRRLQIRHAKVEKILKYSGLMTPRDKDFITRYQLSQIVTEDPYNEDFYFQVYKIIQRGGITSESNKGLIARAYLEHSGHRLGGRYKRTDIALQRMQSQVEKAVTVAKERPSKLKDQQAAAGNSSQDNKQANTVLGKISSTLNSKNPRRQLQIPRQQPSDPDALKDVTDSLTNVDLASSGSSSTGSSAAAVASKQRRRSSYAFNNGNGATNLNKSGGKKFILELIETVYEEILDLEANLRNGQQTDSTAMWEALHIDDSSYDVNPFISMLSFDKGIKIMPRIFNFLDKQQKLKILQKIFNELSHLQIIILSSYKTTPKPTLTQLKKVDLFQMIILKIIVSFLSNNSNFIEIMGLLLQLIRNNNVSFLTTSKIGLNLITILISRAALIKQDSSRSNILSSPEISTWNEIYDKLFTSLESKIQLIFPPREYNDHIMRLQNDKFMDEAYIWQFLASLALSGKLNHQRIIIDEVRDEIFATINEAETLQKKEKELSVLPQRSQELDTELKSIIYNKEKLYQDLNLFLNVMGLVYRDGEISELK
–	binds	Dcp2, P53550 1-970 (protein) MSLPLRHALENVTSVDRILEDLLVRFIINCPNEDLSSVERELFHFEEASWFYTDFIKLMNPTLPSLKIKSFAQLIIKLCPLVWKWDIRVDEALQQFSKYKKSIPVRGAAIFNENLSKILLVQGTESDSWSFPRGKISKDENDIDCCIREVKEEIGFDLTDYIDDNQFIERNIQGKNYKIFLISGVSEVFNFKPQVRNEIDKIEWFDFKKISKTMYKSNIKYYLINSMMRPLSMWLRHQRQIKNEDQLKSYAEEQLKLLLGITKEEQIDPGRELLNMLHTAVQANSNNNAVSNGQVPSSQELQHLKEQSGEHNQQKDQQSSFSSQQQPSIFPSLSEPFANNKNVIPPTMPMANVFMSNPQLFATMNGQPFAPFPFMLPLTNNSNSANPIPTPVPPNFNAPPNPMAFGVPNMHNLSGPAVSQPFSLPPAPLPRDSGYSSSSPGQLLDILNSKKPDSNVQSSKKPKLKILQRGTDLNSIKQNNNDETAHSNSQALLDLLKKPTSSQKIHASKPDTSFLPNDSVSGIQDAEYEDFESSSDEEVETARDERNSLNVDIGVNVMPSEKDSRRSQKEKPRNDASKTNLNASAESNSVEWGPGKSSPSTQSKQNSSVGMQNKYRQEIHIGDSDAYEVFESSSDEEDGKKLEELEQTQDNSKLISQDILKENNFQDGEVPHRDMPTESNKSINETVGLSSTTNTVKKVPKVKILKRGETFASLANDKKAFDSSSNVSSSKDLLQMLRNPISSTVSSNQQSPKSQHLSGDEEIMMMLKRNSVSKPQNSEENASTSSINDANASELLGMLKQKEKDITAPKQPYNVDSYSQKNSAKGLLNILKKNDSTGYPRTEGGPSSEMSTSMKRNDATNNQELDKNSTELLNYLKPKPLNDGYENISNKDSSHELLNILHGNKNSSAFNNNVYATDGYSLASDNNENSSNKLLNMLQNRSSAINEPNFDVRSNGTSGSNELLSILHRK
